Data published in the supplement of paper PMC12067093, “Discovery and optimisation of a covalent ligand for TRIM25 and its application to targeted protein ubiquitination” (Chemical Science, 2025).
This is one part of the list.

The chains behind the UniProt entries cited, without tags or fusion partners. Where a name states a change or a piece, a line headed by the entry shows the natural chain unless it says otherwise.
UniProt P35611: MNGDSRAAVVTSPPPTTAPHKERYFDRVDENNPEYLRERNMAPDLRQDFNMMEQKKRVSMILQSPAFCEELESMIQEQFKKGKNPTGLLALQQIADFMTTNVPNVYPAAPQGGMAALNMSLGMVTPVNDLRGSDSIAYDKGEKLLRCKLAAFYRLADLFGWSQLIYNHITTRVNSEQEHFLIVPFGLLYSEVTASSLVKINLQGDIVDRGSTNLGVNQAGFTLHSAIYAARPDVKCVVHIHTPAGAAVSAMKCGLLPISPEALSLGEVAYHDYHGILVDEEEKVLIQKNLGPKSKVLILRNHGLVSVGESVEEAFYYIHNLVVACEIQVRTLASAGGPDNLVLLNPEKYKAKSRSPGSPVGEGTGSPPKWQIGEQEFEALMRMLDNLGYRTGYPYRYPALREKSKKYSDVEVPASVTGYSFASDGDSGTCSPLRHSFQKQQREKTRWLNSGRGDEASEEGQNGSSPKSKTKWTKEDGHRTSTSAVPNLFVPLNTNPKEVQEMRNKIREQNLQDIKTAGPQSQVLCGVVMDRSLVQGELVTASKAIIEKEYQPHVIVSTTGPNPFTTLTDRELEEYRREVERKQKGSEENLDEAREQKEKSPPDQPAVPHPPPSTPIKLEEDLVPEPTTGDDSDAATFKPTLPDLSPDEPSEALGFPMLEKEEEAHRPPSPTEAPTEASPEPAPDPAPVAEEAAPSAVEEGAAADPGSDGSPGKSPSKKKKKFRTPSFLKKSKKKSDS
UniProt O60488: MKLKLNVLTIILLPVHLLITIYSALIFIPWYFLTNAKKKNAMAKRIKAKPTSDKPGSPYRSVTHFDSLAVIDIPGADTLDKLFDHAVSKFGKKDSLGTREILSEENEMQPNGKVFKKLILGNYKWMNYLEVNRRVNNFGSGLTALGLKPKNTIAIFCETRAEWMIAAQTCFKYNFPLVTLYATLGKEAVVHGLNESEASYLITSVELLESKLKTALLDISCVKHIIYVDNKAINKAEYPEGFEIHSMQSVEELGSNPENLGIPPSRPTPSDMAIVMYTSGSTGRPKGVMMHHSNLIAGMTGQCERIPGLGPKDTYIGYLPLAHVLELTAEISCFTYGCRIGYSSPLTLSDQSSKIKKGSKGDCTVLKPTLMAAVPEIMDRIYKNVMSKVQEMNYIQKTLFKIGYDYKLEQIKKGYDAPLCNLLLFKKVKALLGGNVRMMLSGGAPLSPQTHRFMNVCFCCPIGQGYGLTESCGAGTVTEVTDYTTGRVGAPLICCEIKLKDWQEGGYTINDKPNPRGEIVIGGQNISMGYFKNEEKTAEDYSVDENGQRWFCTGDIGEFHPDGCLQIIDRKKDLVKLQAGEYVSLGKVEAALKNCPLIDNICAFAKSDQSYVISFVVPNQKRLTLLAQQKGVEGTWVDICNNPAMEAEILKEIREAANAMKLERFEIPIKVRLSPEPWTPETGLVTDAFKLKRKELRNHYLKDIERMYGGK
UniProt P30566: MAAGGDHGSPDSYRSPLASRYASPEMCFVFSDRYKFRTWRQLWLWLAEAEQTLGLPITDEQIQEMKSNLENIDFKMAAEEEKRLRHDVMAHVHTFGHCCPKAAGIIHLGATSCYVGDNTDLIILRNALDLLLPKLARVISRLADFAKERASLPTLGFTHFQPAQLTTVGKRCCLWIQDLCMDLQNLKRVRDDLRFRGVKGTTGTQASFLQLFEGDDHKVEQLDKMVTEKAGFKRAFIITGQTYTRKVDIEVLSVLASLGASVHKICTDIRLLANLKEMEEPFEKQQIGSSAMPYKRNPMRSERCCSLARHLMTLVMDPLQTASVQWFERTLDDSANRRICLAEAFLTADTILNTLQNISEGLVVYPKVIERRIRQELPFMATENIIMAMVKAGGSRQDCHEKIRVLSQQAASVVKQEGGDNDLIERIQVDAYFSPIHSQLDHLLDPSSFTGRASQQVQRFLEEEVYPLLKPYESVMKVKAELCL
UniProt O95490: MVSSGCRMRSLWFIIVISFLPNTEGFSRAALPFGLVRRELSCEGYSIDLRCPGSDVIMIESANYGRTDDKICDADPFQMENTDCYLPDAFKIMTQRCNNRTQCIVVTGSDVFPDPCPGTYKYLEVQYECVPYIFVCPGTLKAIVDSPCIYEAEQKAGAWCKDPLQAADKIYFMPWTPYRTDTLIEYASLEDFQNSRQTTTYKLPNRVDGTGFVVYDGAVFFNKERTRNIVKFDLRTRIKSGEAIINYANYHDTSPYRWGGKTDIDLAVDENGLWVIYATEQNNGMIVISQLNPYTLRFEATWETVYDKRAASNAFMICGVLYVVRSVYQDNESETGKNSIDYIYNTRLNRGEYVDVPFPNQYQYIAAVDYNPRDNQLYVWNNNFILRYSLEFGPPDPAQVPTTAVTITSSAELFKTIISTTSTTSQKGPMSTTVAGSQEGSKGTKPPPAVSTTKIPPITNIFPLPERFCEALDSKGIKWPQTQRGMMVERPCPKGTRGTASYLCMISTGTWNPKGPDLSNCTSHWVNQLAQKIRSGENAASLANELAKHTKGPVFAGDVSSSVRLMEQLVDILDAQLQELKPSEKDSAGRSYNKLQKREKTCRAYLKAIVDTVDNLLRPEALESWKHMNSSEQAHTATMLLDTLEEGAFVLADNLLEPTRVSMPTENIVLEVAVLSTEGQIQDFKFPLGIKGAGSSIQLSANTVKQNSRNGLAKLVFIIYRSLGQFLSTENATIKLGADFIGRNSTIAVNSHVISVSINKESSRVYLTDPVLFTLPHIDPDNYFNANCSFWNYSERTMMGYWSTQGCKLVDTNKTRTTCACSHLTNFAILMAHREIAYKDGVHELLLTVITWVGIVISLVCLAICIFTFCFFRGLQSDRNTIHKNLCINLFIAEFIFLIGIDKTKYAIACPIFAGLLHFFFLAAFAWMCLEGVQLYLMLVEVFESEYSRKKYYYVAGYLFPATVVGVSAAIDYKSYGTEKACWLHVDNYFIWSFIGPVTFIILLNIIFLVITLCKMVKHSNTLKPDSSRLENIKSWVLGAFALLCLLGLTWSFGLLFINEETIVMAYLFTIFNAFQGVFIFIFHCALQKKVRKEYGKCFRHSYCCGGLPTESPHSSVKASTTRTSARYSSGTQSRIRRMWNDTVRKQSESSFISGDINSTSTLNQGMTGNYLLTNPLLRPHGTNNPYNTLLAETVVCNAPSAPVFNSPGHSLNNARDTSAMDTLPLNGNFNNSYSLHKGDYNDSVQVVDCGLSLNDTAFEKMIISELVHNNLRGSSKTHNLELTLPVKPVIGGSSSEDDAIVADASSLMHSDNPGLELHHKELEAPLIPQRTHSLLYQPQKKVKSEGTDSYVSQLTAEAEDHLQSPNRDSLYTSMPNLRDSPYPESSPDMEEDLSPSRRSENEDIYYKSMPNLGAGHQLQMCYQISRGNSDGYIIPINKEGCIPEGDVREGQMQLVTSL
UniProt P51828: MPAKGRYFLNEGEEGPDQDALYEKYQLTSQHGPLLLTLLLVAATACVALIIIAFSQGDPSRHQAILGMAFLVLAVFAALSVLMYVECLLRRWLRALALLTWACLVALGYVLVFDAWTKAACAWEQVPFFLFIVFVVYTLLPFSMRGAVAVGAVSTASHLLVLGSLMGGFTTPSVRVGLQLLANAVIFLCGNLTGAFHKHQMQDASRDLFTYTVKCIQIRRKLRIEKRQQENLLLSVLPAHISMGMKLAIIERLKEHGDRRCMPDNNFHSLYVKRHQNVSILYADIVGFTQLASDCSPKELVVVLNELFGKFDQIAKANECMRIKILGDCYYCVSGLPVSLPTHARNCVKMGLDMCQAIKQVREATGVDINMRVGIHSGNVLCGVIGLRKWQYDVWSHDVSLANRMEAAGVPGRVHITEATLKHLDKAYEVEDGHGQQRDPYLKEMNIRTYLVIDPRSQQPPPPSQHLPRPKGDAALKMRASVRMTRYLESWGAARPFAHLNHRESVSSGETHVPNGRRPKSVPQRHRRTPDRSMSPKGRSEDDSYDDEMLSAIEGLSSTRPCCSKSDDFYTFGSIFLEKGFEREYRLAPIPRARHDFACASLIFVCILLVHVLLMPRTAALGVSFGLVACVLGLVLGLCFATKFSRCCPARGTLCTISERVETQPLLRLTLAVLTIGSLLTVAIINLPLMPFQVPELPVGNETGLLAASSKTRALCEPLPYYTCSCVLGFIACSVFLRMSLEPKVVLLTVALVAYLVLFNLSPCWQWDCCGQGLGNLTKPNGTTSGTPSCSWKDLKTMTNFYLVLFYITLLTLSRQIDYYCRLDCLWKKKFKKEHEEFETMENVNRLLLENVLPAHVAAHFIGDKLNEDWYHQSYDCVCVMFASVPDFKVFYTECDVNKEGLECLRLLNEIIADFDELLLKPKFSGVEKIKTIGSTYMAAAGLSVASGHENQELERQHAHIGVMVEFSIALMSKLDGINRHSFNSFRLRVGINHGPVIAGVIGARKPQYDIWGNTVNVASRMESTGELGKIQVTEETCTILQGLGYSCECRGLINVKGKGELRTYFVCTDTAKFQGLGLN
UniProt P30520: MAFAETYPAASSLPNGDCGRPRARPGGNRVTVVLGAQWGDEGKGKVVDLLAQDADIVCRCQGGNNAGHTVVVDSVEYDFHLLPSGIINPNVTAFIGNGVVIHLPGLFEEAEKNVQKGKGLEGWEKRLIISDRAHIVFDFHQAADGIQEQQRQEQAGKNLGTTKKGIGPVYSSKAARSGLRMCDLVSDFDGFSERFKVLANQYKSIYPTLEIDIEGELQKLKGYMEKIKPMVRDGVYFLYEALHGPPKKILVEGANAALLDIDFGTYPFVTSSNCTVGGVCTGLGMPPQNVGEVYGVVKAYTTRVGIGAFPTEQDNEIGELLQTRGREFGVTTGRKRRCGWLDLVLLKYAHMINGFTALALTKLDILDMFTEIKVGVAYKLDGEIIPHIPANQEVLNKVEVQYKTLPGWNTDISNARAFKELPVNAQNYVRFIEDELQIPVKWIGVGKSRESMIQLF
UniProt P52594: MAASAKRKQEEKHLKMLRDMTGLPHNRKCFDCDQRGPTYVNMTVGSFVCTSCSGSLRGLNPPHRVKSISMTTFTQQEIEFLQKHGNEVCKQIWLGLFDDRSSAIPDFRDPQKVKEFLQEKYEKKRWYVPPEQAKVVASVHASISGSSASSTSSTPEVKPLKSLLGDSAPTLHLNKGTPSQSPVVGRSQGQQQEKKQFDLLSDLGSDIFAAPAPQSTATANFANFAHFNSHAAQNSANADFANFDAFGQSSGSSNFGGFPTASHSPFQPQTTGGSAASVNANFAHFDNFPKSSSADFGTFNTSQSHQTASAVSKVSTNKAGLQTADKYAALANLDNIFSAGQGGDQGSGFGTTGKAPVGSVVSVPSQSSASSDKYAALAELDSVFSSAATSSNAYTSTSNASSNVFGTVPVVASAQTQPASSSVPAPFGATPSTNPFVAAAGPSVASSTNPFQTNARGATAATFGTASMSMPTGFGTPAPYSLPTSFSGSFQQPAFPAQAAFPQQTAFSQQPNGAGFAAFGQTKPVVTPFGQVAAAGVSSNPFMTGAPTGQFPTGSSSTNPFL
UniProt Q9H2P0: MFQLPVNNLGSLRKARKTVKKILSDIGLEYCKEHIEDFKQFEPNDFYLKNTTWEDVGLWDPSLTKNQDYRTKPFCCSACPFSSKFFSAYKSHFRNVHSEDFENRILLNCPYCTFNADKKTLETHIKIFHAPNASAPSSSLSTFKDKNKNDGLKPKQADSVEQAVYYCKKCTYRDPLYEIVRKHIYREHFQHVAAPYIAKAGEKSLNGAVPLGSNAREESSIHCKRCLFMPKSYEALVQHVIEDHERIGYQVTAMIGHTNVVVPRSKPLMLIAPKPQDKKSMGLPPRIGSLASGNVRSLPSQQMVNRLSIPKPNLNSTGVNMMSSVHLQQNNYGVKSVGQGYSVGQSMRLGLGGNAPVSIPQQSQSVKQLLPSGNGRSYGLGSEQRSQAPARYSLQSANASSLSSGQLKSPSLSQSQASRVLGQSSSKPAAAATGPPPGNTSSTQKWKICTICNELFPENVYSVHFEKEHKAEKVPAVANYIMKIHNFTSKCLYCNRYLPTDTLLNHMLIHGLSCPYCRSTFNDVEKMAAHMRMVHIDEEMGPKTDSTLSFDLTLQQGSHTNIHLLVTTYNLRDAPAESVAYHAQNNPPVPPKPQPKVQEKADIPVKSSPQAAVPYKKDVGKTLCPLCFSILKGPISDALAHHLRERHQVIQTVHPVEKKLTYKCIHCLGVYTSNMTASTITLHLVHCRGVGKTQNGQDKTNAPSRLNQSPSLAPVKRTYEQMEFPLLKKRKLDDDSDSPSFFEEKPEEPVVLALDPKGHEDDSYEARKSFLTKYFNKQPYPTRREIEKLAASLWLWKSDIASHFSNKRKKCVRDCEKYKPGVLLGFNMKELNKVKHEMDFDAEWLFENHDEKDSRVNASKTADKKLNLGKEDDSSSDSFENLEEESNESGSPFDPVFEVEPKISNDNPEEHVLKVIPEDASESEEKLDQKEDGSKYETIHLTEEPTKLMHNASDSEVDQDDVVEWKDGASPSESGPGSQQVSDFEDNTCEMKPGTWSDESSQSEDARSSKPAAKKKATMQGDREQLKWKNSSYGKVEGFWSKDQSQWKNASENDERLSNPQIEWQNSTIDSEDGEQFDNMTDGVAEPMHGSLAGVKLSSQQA

Compound: Cc1cc(ccc1-c1ccccc1)C(=O)N1CCCN(CC1)C(=O)CCl [compound 10]
Test: probe-labelled cysteine peptide fold change vs DMSO (competition) (log2 fold change); higher = less target engagement (more negative = stronger competition)
Conditions: THP-1, incubation time: 4 h
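Also: competitive profiling in live THP-1 cells: cysteine peptides tagged with an iodoacetamide desthiobiotin (IA-DTB) probe, intensity after compound treatment relative to DMSO-treated cells.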

Row | Target | probe-labelled cysteine peptide fold change (10 µM) | probe-labelled cysteine peptide fold change (50 µM)
1 | ADD1_P35611_430_YSDVEVPASVTGYSFASDGDSGTCSPLR (UniProt P35611) | -0.202 | -0.334
2 | ACSL4_O60488_552+564_WFCTGDIGEFHPDGCLQIIDR (UniProt O60488) | -0.181 | -0.203
3 | ADSL_P30566_266_ICTDIR (UniProt P30566) | 0.222 | 0.0905
4 | ADAM15_Q13444_583_DAICGQLQCQTGR (UniProt Q13444) | 0.0282 | 0.308
5 | ADGRL2_O95490_160_AGAWCK (UniProt O95490) | -0.121 | -0.0724
6 | ADCY7_P51828_382_VGIHSGNVLCGVIGLR (UniProt P51828) | 0.0372 | 0.0795
7 | ADSS_P30520_338_CGWLDLVLLK (UniProt P30520) | 0.0389 | 0.313
8 | ACSL4_O60488_170_AEWMIAAQTCFK (UniProt O60488) | 0.0551 | 0.409
9 | ADSL_P30566_98+99_HDVMAHVHTFGHCCPK (UniProt P30566) | -0.145 | -0.645
10 | AGFG1_P52594_89_HGNEVCK (UniProt P52594) | 0.118 | 0.205
11 | ADSS_P30520_18_AFAETYPAASSLPNGDCGRPR (UniProt P30520) | -0.346 | -0.00731
12 | ACTR3B_Q9P1U1_408_DYEEYGPSICR (UniProt Q9P1U1) | 0.154 | 0.0944
13 | ADNP_Q9H2P0_223_EESSIHCK (UniProt Q9H2P0) | 0.144 | 0.0562

Part of the list above, in markdown.

| Row | Target | probe-labelled cysteine peptide fold change (10 µM) | probe-labelled cysteine peptide fold change (50 µM) |
| --- | --- | --- | --- |
| 2 | ACSL4_O60488_552+564_WFCTGDIGEFHPDGCLQIIDR (UniProt O60488) | -0.181 | -0.203 |
| 9 | ADSL_P30566_98+99_HDVMAHVHTFGHCCPK (UniProt P30566) | -0.145 | -0.645 |
